Measurements reported in PubChem BioAssay AID1159584 (Peter MacCallum Cancer Centre, 2016)
The deposit covers about 18,000 reagents; this is a random part of them. Further read-outs or replicates are left out here. Not stated in the record: the amount of reagent, the time to read-out.

- Aim: 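Knock-downs that harm CDH1-null cells more than parental MCF10A cells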 (primary screen)
- System: human MCF10A breast epithelial cells, parental and CDH1-null
- Reagents: siRNA against human genes
- Measurement: 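ATP luminescence (CellTiter-Glo) viability per line relative to mean mock wells over all plates, and the ratio of CDH1-null to parental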
- Scale: CDH1-null / parental viability ratio: higher = CDH1-null cells survive relatively better than parental; CDH1-null viability vs mock: higher = more viable CDH1-null cells

For STRADA, how do the results read?
CDH1-null / parental viability ratio: 1.01; CDH1-null viability vs mock (fraction of mock): 0.78

Which result is listed for CRELD2?
CDH1-null / parental viability ratio: 0.91; CDH1-null viability vs mock (fraction of mock): 0.69

What did the screen give for GLIPR1?
CDH1-null / parental viability ratio: 1.07; CDH1-null viability vs mock (fraction of mock): 0.89

With FXYD2, what was measured?
CDH1-null / parental viability ratio: 1.61; CDH1-null viability vs mock (fraction of mock): 0.9

For ZBTB26, how do the results read?
CDH1-null / parental viability ratio: 0.91; CDH1-null viability vs mock (fraction of mock): 0.62

What did the screen give for PNLIPRP3?
CDH1-null / parental viability ratio: 1.03; CDH1-null viability vs mock (fraction of mock): 0.76

What is on record for BTAF1?
CDH1-null / parental viability ratio: 0.98; CDH1-null viability vs mock (fraction of mock): 0.64

For MYCT1, what was measured?
CDH1-null / parental viability ratio: 1.17; CDH1-null viability vs mock (fraction of mock): 0.98

Which result is listed for ADAMTSL1?
CDH1-null / parental viability ratio: 1.03; CDH1-null viability vs mock (fraction of mock): 0.66

For NUBP2, what does the deposit list?
CDH1-null / parental viability ratio: 1.22; CDH1-null viability vs mock (fraction of mock): 0.9

With TMLHE, what was measured?
CDH1-null / parental viability ratio: 1.04; CDH1-null viability vs mock (fraction of mock): 0.76

How did the screen score GPR143?
CDH1-null / parental viability ratio: 1.34; CDH1-null viability vs mock (fraction of mock): 0.9

What did the screen give for FOXF2?
CDH1-null / parental viability ratio: 0.99; CDH1-null viability vs mock (fraction of mock): 0.91

A run of entries taken from the entries so far, for reference:
PNLIPRP3 — CDH1-null / parental viability ratio = 1.03; CDH1-null viability vs mock (fraction of mock) = 0.76
BTAF1 — CDH1-null / parental viability ratio = 0.98; CDH1-null viability vs mock (fraction of mock) = 0.64
MYCT1 — CDH1-null / parental viability ratio = 1.17; CDH1-null viability vs mock (fraction of mock) = 0.98

More results follow.
With ULK3, what does the deposit list?
CDH1-null / parental viability ratio: 1.03; CDH1-null viability vs mock (fraction of mock): 0.72

For RBM15B, what does the deposit list?
CDH1-null / parental viability ratio: 0.92; CDH1-null viability vs mock (fraction of mock): 0.76

What is on record for FOXL1?
CDH1-null / parental viability ratio: 0.85; CDH1-null viability vs mock (fraction of mock): 0.78

For ANO5, how do the results read?
CDH1-null / parental viability ratio: 1.24; CDH1-null viability vs mock (fraction of mock): 0.77

With DCAF4, how do the results read?
CDH1-null / parental viability ratio: 1.17; CDH1-null viability vs mock (fraction of mock): 0.34

How did the screen score LRRC2?
CDH1-null / parental viability ratio: 0.98; CDH1-null viability vs mock (fraction of mock): 0.96

Which result is listed for RBM43?
CDH1-null / parental viability ratio: 0.96; CDH1-null viability vs mock (fraction of mock): 0.9

How did the screen score RIBC2?
CDH1-null / parental viability ratio: 0.87; CDH1-null viability vs mock (fraction of mock): 0.52

With CD79B, what was measured?
CDH1-null / parental viability ratio: 1.03; CDH1-null viability vs mock (fraction of mock): 0.97

With ENC1, what was measured?
CDH1-null / parental viability ratio: 0.8; CDH1-null viability vs mock (fraction of mock): 0.78

With ENY2, how do the results read?
CDH1-null / parental viability ratio: 1.03; CDH1-null viability vs mock (fraction of mock): 0.8
